Values of other authors, collected in patent US10662475B2, “Compositions and methods for the treatment and prevention of antipsychotic medication-induced weight gain” (Centre for Addiction and Mental Health, priority 2014, dated 2020).
Like-named read-outs stand apart in the source and are kept apart here. At least one compound was matched to its structure with a doubt left.

What was measured:
orexin neurons = details: compared with antipsychotics with relatively less AIWG risk (e.g. risperidone); cited from earlier work
[1] = test system: orexin A positive neurons; details: female Sprague Dawley rats injected with olanzapine; cited from earlier work
GLP-1 = details: cited from earlier work

Compound: Cc1cc2c(s1)Nc1ccccc1N=C2N1CCN(C)CC1 [olanzapine]
- activation of orexin neurons (orexin neurons): activated orexin neurons significantly more
- neurons activated in the perifornical region of lateral hypothalamus that are orexin A positive [1]: 50%
- GLP-1 levels (GLP-1; rat models, effects seem to occur after a longer treatment period): decrease GLP-1 levels
- GLP-1 levels (GLP-1; short-term treatment): did not show an impact
